Data from PMC4837377.
These are yes or no findings as the source states them, for the method shown.

Key:
[1] = biological target: T1, RanBP5 expressed alone (construct 22) (human), O00410; test: SEC-MALS; both purified; conditions: remark: other sources report otherwise
T1 chain: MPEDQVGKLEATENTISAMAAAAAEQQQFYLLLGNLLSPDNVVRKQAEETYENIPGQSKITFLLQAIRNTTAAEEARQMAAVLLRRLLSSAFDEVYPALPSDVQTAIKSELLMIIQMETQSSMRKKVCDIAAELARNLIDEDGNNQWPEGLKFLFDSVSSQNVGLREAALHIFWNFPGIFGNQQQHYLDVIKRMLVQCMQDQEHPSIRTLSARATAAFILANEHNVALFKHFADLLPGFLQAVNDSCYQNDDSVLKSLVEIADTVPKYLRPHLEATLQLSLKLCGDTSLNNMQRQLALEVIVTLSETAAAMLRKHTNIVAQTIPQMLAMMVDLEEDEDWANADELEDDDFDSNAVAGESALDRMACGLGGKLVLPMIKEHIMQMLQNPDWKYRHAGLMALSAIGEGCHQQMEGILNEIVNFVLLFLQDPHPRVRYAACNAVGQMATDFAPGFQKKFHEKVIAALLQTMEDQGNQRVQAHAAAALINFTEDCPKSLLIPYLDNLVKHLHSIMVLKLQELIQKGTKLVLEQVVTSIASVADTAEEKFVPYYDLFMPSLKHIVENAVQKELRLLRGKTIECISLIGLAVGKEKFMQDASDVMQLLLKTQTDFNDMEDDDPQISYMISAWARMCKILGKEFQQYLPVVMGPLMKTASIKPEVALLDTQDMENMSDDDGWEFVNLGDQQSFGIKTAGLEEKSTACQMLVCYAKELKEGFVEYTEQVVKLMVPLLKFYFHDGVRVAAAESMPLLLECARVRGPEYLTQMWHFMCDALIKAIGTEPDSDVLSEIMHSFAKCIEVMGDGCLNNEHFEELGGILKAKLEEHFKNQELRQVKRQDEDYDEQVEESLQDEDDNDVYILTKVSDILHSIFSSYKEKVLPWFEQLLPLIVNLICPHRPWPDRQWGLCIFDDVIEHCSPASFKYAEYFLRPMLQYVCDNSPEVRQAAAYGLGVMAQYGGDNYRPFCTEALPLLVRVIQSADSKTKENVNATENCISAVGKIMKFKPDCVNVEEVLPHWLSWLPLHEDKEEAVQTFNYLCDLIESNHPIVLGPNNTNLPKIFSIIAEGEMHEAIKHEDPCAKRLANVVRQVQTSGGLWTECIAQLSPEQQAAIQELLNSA

[2] = biological target: T1, RanBP5 expressed alone (construct 22) …; test: SEC-SAXS; both purified; conditions: remark: other sources report otherwise

B1: RanBP5 expressed alone (construct 22), O00410-3 1-1115 (protein)
chain: T1 chain
- binding [1]: no binding
- binding [2]: no binding
